Measurements reported in PMC10869442.
These are yes or no findings as the source states them, for the method shown. Binding can be weak; no strength is given. Tags and fused reporters may be left off the sequences shown. For some of these results: In cells and extracts the contact can be indirect.

Key:
[1] = target: T1, RIPK (RPM1-induced protein kinase), MYTH bait fused to the split-ubiquitin Cub domain (A. thaliana) (UniProt Q9ZUF4); experiment: two-hybrid; split-ubiquitin membrane yeast two-hybrid (MYTH) in S. cerevisiae NMY51; RIN4-like/NOIs as prey (Nub), RIPK, RPM1 and RPS2 as baits (Cub); growth on DOB+CSM-L-W-H with different concentrations of 3-AT
T1 sequence: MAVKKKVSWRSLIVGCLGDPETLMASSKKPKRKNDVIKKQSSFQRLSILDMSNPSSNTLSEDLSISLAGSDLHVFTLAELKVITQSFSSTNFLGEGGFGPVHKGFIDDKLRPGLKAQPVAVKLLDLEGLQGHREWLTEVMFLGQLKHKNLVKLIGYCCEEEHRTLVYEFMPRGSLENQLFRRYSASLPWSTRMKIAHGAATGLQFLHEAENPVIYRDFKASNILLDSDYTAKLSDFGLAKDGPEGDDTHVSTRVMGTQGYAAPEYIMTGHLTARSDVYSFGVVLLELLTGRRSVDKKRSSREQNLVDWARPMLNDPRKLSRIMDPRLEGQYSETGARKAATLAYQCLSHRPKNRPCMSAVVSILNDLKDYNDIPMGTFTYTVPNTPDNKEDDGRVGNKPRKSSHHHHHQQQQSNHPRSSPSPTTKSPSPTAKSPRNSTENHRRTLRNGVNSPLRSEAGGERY

[2] = target: T2, RPS2 (R protein), MYTH bait fused to the split-ubiquitin Cub domain (A. thaliana) (UniProt Q42484); experiment: as above
T2 sequence: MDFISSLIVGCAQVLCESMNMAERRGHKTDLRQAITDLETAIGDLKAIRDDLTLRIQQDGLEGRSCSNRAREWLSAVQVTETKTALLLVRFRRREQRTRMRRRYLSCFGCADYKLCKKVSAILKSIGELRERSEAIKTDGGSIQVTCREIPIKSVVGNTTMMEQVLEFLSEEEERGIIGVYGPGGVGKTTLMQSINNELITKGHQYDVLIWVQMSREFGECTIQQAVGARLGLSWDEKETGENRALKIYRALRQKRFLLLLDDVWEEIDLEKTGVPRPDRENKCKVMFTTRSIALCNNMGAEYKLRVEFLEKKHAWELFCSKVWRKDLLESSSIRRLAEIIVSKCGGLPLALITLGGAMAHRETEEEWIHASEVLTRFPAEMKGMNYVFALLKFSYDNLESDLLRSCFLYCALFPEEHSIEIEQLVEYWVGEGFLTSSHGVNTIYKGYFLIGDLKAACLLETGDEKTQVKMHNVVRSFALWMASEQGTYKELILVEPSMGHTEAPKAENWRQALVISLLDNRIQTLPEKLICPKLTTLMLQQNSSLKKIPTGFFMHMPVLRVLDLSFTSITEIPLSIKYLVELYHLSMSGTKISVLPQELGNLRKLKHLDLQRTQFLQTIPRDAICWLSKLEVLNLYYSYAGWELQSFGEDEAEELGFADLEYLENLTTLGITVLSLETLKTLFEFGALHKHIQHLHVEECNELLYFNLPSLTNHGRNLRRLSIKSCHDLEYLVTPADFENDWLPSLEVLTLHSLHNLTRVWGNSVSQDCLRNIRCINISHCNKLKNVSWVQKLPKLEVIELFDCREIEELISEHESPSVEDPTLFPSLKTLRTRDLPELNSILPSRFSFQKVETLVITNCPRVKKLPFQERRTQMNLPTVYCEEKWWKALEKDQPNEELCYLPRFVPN

RPM1-HA (A. thaliana) = target: T3, RPM1-HA (A. thaliana) (UniProt Q39214); experiment: co-IP; extracts of N. benthamiana leaves coexpressing HA-tagged RPM1, RIPK or RPS2 and GFP-fused RIN4/NOI proteins, 3 d after infiltration; anti-HA antibody on Dynabeads protein G, overnight at 4 °C; CoIP buffer 50 mM Tris HCl, 125 mM NaCl, 0.1% tween-20, 1 mM DTT, 10% glycerol, pH 7.4; anti-GFP blot
T3 sequence: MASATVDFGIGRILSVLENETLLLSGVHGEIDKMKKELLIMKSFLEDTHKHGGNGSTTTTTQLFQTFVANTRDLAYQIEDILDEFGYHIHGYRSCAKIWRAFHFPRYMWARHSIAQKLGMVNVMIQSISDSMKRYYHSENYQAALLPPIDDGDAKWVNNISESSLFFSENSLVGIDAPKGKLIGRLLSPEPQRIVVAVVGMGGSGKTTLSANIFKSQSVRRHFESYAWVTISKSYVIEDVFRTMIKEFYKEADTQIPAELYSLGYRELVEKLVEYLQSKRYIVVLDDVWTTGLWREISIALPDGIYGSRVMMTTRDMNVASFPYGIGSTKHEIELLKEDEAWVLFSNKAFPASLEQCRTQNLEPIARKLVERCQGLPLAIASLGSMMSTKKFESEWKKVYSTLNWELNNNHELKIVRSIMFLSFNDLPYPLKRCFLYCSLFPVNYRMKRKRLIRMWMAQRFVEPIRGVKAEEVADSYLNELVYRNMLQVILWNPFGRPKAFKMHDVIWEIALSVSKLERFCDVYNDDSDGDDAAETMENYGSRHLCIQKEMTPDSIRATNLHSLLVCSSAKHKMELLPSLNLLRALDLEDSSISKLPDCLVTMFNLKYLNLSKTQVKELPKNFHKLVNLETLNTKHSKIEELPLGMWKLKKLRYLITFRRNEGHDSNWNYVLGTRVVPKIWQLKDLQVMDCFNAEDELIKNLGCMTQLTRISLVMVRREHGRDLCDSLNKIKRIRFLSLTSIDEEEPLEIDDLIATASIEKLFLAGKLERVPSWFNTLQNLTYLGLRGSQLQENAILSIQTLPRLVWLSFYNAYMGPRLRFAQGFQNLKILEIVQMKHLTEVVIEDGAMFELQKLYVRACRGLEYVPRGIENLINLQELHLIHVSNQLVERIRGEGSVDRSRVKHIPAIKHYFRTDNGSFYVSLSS

RIPK-HA (A. thaliana) = target: T4, RIPK-HA (A. thaliana) (UniProt Q9ZUF4); experiment: as above
T4 sequence: T1 sequence

RPS2-HA (A. thaliana) = target: T5, RPS2-HA (A. thaliana) (UniProt Q42484); experiment: as above
T5 sequence: T2 sequence

| Substance | binding [1] | binding [2] | binding (RPM1-HA (A. thaliana)) | binding (RIPK-HA (A. thaliana)) | binding (RPS2-HA (A. thaliana)) |
| --- | --- | --- | --- | --- | --- |
| NOI11 (RIN4-like/NOI protein), MYTH prey fused to the split-ubiquitin Nub domain (A. thaliana) | binds | binds | – | – | – |
| NOI11 fused to GFP (A. thaliana) | – | – | binds | binds | binds |
| NOI10 (RIN4-like/NOI protein), MYTH prey fused to the split-ubiquitin Nub domain (A. thaliana) | binds | binds | – | – | – |
| NOI5 (RIN4-like/NOI protein), MYTH prey fused to the split-ubiquitin Nub domain (A. thaliana) | no binding | binds weakly | – | – | – |
| NOI10 fused to GFP (A. thaliana) | – | – | binds weakly | binds | – |
| NOI3 (RIN4-like/NOI protein), MYTH prey fused to the split-ubiquitin Nub domain (A. thaliana) | no binding | binds weakly | – | – | – |
